Results as given in paper PMC6268880, “IMB2026791, a Xanthone, Stimulates Cholesterol Efflux by Increasing the Binding of Apolipoprotein A-I to ATP-Binding Cassette Transporter A1” (Molecules, 2012).
No constants are given. Whether binding was seen depends on the method and setting. For some of these results: Binding can be weak; no strength is given.

By UniProt entry, the sequences of proteins in these tests, tags left out. Where a name states a change or a piece, a line headed by the entry shows the natural chain unless it says otherwise.
UniProt O95477: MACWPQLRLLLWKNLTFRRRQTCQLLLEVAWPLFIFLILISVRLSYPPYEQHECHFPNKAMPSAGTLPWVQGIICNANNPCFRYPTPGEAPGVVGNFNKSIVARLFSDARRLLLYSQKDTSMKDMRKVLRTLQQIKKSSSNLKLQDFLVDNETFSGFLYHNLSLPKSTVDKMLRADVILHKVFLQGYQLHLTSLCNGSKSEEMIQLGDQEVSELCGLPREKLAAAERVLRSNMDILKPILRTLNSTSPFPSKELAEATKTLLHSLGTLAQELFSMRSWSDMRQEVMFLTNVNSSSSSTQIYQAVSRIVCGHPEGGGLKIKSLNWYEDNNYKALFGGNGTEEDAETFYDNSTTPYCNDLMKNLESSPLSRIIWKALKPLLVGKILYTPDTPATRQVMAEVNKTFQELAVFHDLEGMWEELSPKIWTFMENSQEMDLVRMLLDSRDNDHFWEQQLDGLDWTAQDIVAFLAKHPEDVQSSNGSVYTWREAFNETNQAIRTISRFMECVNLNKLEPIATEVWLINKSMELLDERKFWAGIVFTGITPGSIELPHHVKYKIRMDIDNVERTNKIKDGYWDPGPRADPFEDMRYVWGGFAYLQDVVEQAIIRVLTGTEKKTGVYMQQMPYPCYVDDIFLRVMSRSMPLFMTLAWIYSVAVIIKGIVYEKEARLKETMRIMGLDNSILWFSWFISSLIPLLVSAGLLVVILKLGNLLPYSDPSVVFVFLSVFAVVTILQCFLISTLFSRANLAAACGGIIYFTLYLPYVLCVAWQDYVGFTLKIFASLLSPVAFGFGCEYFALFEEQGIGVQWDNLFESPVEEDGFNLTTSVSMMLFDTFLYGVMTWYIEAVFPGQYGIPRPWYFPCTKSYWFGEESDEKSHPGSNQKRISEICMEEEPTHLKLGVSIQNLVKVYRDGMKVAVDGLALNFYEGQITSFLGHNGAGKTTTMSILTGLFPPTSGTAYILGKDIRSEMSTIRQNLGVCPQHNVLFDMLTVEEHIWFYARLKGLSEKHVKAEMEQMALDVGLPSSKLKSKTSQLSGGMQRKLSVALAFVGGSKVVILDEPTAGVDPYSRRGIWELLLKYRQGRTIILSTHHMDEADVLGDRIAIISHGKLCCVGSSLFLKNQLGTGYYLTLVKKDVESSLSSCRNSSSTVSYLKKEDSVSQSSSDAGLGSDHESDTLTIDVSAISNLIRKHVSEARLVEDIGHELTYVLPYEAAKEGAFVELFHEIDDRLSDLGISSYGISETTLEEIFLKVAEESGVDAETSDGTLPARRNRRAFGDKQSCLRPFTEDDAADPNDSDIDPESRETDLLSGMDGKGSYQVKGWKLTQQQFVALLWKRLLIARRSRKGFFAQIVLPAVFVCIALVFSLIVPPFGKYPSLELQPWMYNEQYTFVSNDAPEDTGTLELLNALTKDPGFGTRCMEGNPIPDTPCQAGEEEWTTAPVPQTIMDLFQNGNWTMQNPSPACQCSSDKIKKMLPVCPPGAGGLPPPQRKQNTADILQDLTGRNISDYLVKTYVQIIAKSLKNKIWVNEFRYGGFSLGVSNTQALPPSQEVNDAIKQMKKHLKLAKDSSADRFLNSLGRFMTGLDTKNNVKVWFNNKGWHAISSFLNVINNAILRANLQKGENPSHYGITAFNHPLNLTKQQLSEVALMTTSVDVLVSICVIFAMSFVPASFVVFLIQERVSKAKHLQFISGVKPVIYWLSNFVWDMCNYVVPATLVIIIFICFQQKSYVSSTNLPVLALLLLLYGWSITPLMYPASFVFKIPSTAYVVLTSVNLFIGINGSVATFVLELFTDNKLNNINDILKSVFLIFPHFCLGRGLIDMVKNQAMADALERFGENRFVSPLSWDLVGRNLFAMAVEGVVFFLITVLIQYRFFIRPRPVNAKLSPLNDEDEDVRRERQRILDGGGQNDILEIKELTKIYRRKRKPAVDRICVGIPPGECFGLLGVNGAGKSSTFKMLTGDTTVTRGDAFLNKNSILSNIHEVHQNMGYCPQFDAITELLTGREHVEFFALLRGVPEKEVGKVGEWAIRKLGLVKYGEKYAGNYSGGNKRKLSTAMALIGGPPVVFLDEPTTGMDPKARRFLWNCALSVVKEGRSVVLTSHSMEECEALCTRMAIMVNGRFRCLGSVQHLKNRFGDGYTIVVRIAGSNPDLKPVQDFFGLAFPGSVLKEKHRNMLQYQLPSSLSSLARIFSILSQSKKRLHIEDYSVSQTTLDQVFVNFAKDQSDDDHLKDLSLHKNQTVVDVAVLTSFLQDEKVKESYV
UniProt P02647: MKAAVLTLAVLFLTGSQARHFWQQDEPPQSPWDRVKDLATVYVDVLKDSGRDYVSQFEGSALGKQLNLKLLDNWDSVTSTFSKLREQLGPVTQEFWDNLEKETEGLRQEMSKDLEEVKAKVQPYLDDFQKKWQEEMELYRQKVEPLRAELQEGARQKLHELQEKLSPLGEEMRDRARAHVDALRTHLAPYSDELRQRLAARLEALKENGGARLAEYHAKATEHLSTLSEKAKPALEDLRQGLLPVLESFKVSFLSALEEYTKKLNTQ

Legend:
[1] = target: ATP-binding cassette transporter A1 (human ABCA1), expressed on CHO cells (human) (UniProt O95477); assay: binding to cells, cell-bound apoA-I detected by western blot of the lysate; as a3, but ABCA1-CHO cells treated with 100 μM glibenclamide for 2 h at 37 °C, then 20 μg/mL apoA-I with glibenclamide for 2 h at 4 °C; only the binder purified
[2] = target: ATP-binding cassette transporter A1 (human ABCA1), expressed on CHO cells (human) (UniProt O95477); assay: flow cytometry on cells; ABCA1-CHO cells; no compound or IMB2026791 for 1 h at 37 °C, then 30 μg/mL apoA-I with the compound for 1 h at 4 °C; washed, mildly trypsinised, fixed; rabbit anti-apoA-I and anti-rabbit IgG-PE; 10,000 cells per sample; only the binder purified
[3] = target: ATP-binding cassette transporter A1 (human ABCA1), expressed on CHO cells (human) (UniProt O95477); assay: binding to cells, cell-bound apoA-I detected by western blot of the lysate; ABCA1-CHO cells; no compound or 50 μM IMB2026791 for 2 h at 37 °C, then 20 μg/mL apoA-I with the compound for 2 h at 4 °C; washed twice with ice-cold PBS, lysed, 30 μg protein per lane, blot with anti-apoA-I, normalised to β-actin; only the binder purified
[4] = target: ATP-binding cassette transporter A1 (human ABCA1), expressed on CHO cells (human) (UniProt O95477); assay: ELISA; cell-based-ELISA-like assay, 96-well; stable ABCA1-CHO cells, 40,000 cells/well; compounds (DMSO, glibenclamide, IMB2026791) 1 h at 37 °C, then 10 μg/mL apoA-I with compounds 1 h at 4 °C in DMEM with 0.2% BSA; washed, fixed with 4% paraformaldehyde; anti-apoA-I antibody, HRP second antibody, absorbance at 450 nm; signal without apoA-I subtracted; only the binder purified

binding [2]: binds
binding [3]: binds
binding [4]: binds
Substance: Human apolipoprotein A-I (from UniProt P02647) (ligand)
binding [1]: no binding (only with 100 μM glibenclamide)
